# Reference: the supplement of paper PMC8728848
# The list shows a part of the results.
# B1: AT1G77380(17) (Arabidopsis thaliana), Q39134 (protein)
# chain: MVQNHQTVLAVDMPQTGGSKYLDDDGKNKRTGSVWTASAHIITAVIGSGVLSLAWATAQLGWLAGPVVMLLFSAVTYFTSSLLAACYRSGDPISGKRNYTYMDAVRSNLGGVKVTLCGIVQYLNIFGVAIGYTIASAISMMAIKRSNCFHKSGGKDPCHMNSNPYMIAFGLVQILFSQIPDFDQLWWLSILAAVMSFTYSSAGLALGIAQVVVNGKVKGSLTGISIGAVTETQKIWRTFQALGDIAFAYSYSIILIEIQDTVKSPPSEEKTMKKATLVSVSVTTMFYMLCGCMGYAAFGDLSPGNLLTGFGFYNPYWLLDIANAAIVIHLIGAYQVYCQPLFAFIEKQASIQFPDSEFIAKDIKIPIPGFKPLRLNVFRLIWRTVFVIITTVISMLLPFFNDVVGLLGALGFWPLTVYFPVEMYIAQKKIPRWSTRWVCLQVFSLGCLVVSIAAAAGSIAGVLLDLKSYKPFRSEY
# Assays:
# Assay in all cases: glycan array binding signal (z-score within array); higher = stronger binding
# Conditions in all cases: glycan notation: IUPAC condensed, linker removed
# Glc(b1-4)Glc = biological target: Glc(b1-4)Glc
# Method in brief: (§1)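 The binding signal is a Z-score computed within each array and averaged over linkers. Arrays of the same protein sequence at different concentrations or buffers were also averaged together. Data originate from 3228 arrays in the Consortium for Functional Glycomics database, kept only where the protein sequence was available.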
# Glc(b1-6)Glc = biological target: Glc(b1-6)Glc
# Method in brief: as §1
# GlcA(b1-3)Gal = biological target: GlcA(b1-3)Gal
# Method in brief: as §1
# GlcA(b1-3)GlcNAc = biological target: GlcA(b1-3)GlcNAc
# Method in brief: as §1
# GlcA(b1-6)Gal = biological target: GlcA(b1-6)Gal
# Method in brief: as §1
# [1] = biological target: GlcA3S(b1-3)Gal(b1-4)GlcNAc(b1-2)Man
# Method in brief: as §1
# [2] = biological target: GlcA3S(b1-3)Gal(b1-4)GlcNAc(b1-3)Gal(b1-4)Glc
# Method in brief: as §1
# [3] = biological target: GlcNAc(a1-3)Gal(b1-4)GlcNAc
# Method in brief: as §1
# [4] = biological target: GlcNAc(a1-4)Gal(b1-3)GlcNAc
# Method in brief: as §1
# [5] = biological target: GlcNAc(a1-4)Gal(b1-4)GalNAc
# Method in brief: as §1
# [6] = biological target: GlcNAc(a1-4)Gal(b1-4)GlcNAc
# Method in brief: as §1
# [7] = biological target: GlcNAc(a1-4)Gal(b1-4)GlcNAc(b1-3)Gal(b1-4)Glc
# Method in brief: as §1
# [8] = biological target: GlcNAc(a1-4)Gal(b1-4)GlcNAc(b1-3)Gal(b1-4)GlcNAc
# Method in brief: as §1
# [9] = biological target: GlcNAc(a1-4)Gal(b1-4)GlcNAc(b1-3)Gal(b1-4)GlcNAc(b1-3)Gal(b1-4)GlcNAc
# Method in brief: as §1
# [10] = biological target: GlcNAc(a1-4)Gal(b1-4)GlcNAc(b1-3)Gal(b1-4)[Fuc(a1-3)]GlcNAc(b1-3)Gal(b1-4)[Fuc(a1-3)]GlcNAc
# Method in brief: as §1
# [11] = biological target: GlcNAc(a1-6)Gal(b1-4)GlcNAc
# Method in brief: as §1
# [12] = biological target: GlcNAc(b1-2)Gal(b1-3)GalNAc
# Method in brief: as §1
# [13] = biological target: GlcNAc(b1-2)Man(a1-3)[GlcNAc(b1-2)Man(a1-6)]Man(b1-4)GlcNAc(b1-4)GlcNAc
# Method in brief: as §1
# [14] = biological target: GlcNAc(b1-2)Man(a1-3)[GlcNAc(b1-2)Man(a1-6)]Man(b1-4)GlcNAc(b1-4)[Fuc(a1-6)]GlcNAc
# Method in brief: as §1
# [15] = biological target: GlcNAc(b1-2)Man(a1-3)[GlcNAc(b1-4)][GlcNAc(b1-2)Man(a1-6)]Man(b1-4)GlcNAc(b1-4)GlcNAc
# Method in brief: as §1
# [16] = biological target: GlcNAc(b1-2)Man(a1-3)[GlcNAc(b1-4)][GlcNAc(b1-2)Man(a1-6)]Man(b1-4)GlcNAc(b1-4)[Fuc(a1-6)]GlcNAc
# Method in brief: as §1
# [17] = biological target: GlcNAc(b1-2)[GlcNAc(b1-4)]Man(a1-3)[GlcNAc(b1-2)Man(a1-6)]Man(b1-4)GlcNAc(b1-4)GlcNAc
# Method in brief: as §1
# [18] = biological target: GlcNAc(b1-2)[GlcNAc(b1-4)]Man(a1-3)[GlcNAc(b1-4)][GlcNAc(b1-2)Man(a1-6)]Man(b1-4)GlcNAc(b1-4)GlcNAc
# Method in brief: as §1
# [19] = biological target: GlcNAc(b1-2)[GlcNAc(b1-4)]Man(a1-3)[GlcNAc(b1-4)][GlcNAc(b1-2)[GlcNAc(b1-6)]Man(a1-6)]Man(b1-4)GlcNAc(b1-4)GlcNAc
# Method in brief: as §1
# [20] = biological target: GlcNAc(b1-2)[GlcNAc(b1-4)]Man(a1-3)[GlcNAc(b1-4)][GlcNAc(b1-2)[GlcNAc(b1-6)]Man(a1-6)]Man(b1-4)GlcNAc(b1-4)[Fuc(a1-6)]GlcNAc
# Method in brief: as §1
# [21] = biological target: GlcNAc(b1-2)[GlcNAc(b1-6)]Man(a1-6)[GlcNAc(b1-2)Man(a1-3)]Man(b1-4)GlcNAc(b1-4)GlcNAc
# Method in brief: as §1
# [22] = biological target: GlcNAc(b1-2)[GlcNAc(b1-6)]Man(a1-6)[GlcNAc(b1-2)Man(a1-3)]Man(b1-4)GlcNAc(b1-4)[Fuc(a1-6)]GlcNAc
# Method in brief: as §1
# [23] = biological target: GlcNAc(b1-2)[GlcNAc(b1-6)]Man(a1-6)[GlcNAc(b1-4)][GlcNAc(b1-2)Man(a1-3)]Man(b1-4)GlcNAc(b1-4)GlcNAc
# Method in brief: as §1
# GlcNAc(b1-3)Fuc = biological target: GlcNAc(b1-3)Fuc
# Method in brief: as §1
# GlcNAc(b1-3)Gal = biological target: GlcNAc(b1-3)Gal
# Method in brief: as §1
# [24] = biological target: GlcNAc(b1-3)Gal(b1-3)GalNAc
# Method in brief: as §1
# GlcNAc(b1-3)Gal(b1-4)Glc = biological target: GlcNAc(b1-3)Gal(b1-4)Glc
# Method in brief: as §1
# [25] = biological target: GlcNAc(b1-3)Gal(b1-4)GlcNAc
# Method in brief: as §1
# [26] = biological target: GlcNAc(b1-3)Gal(b1-4)GlcNAc(b1-2)Man(a1-3)[GlcNAc(b1-3)Gal(b1-4)GlcNAc(b1-2)Man(a1-6)]Man(b1-4)GlcNAc(b1-4)GlcNAc
# Method in brief: as §1
# [27] = biological target: GlcNAc(b1-3)Gal(b1-4)GlcNAc(b1-2)Man(a1-3)[GlcNAc(b1-3)Gal(b1-4)GlcNAc(b1-2)Man(a1-6)]Man(b1-4)GlcNAc(b1-4)[Fuc(a1-6)]GlcNAc
# Method in brief: as §1
# [28] = biological target: GlcNAc(b1-3)Gal(b1-4)GlcNAc(b1-2)[GlcNAc(b1-3)Gal(b1-4)GlcNAc(b1-6)]Man(a1-6)[GlcNAc(b1-3)Gal(b1-4)GlcNAc(b1-2)Man(a1-3)]Man(b1-4)GlcNAc(b1-4)GlcNAc
# Method in brief: as §1
# [29] = biological target: GlcNAc(b1-3)Gal(b1-4)GlcNAc(b1-3)Gal(b1-4)GlcNAc
# Method in brief: as §1
binder,measurement,setting,value
B1,glycan array binding signal (z-score),Glc(b1-4)Glc,0.66
same,glycan array binding signal (z-score),Glc(b1-6)Glc,0.801
same,glycan array binding signal (z-score),GlcA(b1-3)Gal,0.506
same,glycan array binding signal (z-score),GlcA(b1-3)GlcNAc,0.33
same,glycan array binding signal (z-score),GlcA(b1-6)Gal,0.052
same,glycan array binding signal (z-score),[1],-0.131
same,glycan array binding signal (z-score),[2],-0.507
same,glycan array binding signal (z-score),[3],-0.156
same,glycan array binding signal (z-score),[4],-0.389
same,glycan array binding signal (z-score),[5],-0.048
same,glycan array binding signal (z-score),[6],-0.15
same,glycan array binding signal (z-score),[7],-0.016
same,glycan array binding signal (z-score),[8],0.257
same,glycan array binding signal (z-score),[9],-0.203
same,glycan array binding signal (z-score),[10],1.48
same,glycan array binding signal (z-score),[11],-0.127
same,glycan array binding signal (z-score),[12],0.018
same,glycan array binding signal (z-score),[13],-0.226
same,glycan array binding signal (z-score),[14],0.386
same,glycan array binding signal (z-score),[15],-0.289
same,glycan array binding signal (z-score),[16],1.83
same,glycan array binding signal (z-score),[17],1.22
same,glycan array binding signal (z-score),[18],-0.82
same,glycan array binding signal (z-score),[19],-0.887
same,glycan array binding signal (z-score),[20],-0.642
same,glycan array binding signal (z-score),[21],-0.487
same,glycan array binding signal (z-score),[22],1.04
same,glycan array binding signal (z-score),[23],-0.522
same,glycan array binding signal (z-score),GlcNAc(b1-3)Fuc,-0.685
same,glycan array binding signal (z-score),GlcNAc(b1-3)Gal,-0.826
same,glycan array binding signal (z-score),[24],-0.035
same,glycan array binding signal (z-score),GlcNAc(b1-3)Gal(b1-4)Glc,-0.394
same,glycan array binding signal (z-score),[25],1.08
same,glycan array binding signal (z-score),[26],-0.699
same,glycan array binding signal (z-score),[27],1.74
same,glycan array binding signal (z-score),[28],0.57
same,glycan array binding signal (z-score),[29],0.745

# Part of the list above, with tabs:
binder	measurement	setting	value
B1	glycan array binding signal (z-score)	[15]	-0.289
same	glycan array binding signal (z-score)	[19]	-0.887
